# Like-named read-outs stand apart in the source and are kept apart here.
# By UniProt entry, the sequences of proteins in these tests, tags left out.
# UniProt D9U2B9, entry or part of it: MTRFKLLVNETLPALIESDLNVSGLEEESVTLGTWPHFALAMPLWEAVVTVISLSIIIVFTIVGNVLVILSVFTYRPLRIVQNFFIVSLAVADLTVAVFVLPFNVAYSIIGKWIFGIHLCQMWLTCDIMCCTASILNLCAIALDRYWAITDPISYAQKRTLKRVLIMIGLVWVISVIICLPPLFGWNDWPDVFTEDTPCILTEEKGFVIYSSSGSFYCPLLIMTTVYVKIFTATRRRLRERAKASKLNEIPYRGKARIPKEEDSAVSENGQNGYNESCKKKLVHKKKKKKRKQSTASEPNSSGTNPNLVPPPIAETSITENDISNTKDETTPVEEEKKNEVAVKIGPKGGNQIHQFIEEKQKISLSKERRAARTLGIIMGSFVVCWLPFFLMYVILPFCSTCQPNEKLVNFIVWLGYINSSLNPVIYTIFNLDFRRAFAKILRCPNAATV
# Target: OA/TAMac receptor (Macrobrachium rosenbergii, UniProt D9U2B9)
# Test: Antagonist block of ID evoked by 50 µM octopamine in OA/TAMac-injected oocytes
# Format: cell-based
# Experimental: Recordings were performed 1–3 days post-injection at room temperature (20–22°C). Currents were recorded under two-electrode voltage clamp using an Axoclamp 900a amplifier (Molecular Devices LLC, CA USA). A digidata 1440a analog to digital converter was used in conjunction with pCLAMP 10 software (Molecular Devices) for data acquisition and to generate voltage commands. For each step protocol or chemical application data were typically sampled at 5 KHz and filtered digitally at 1 KHz. For the duration of each experiment the current was also continuously sampled at 1 kHz using a separate minidigi 1A digitizer (Molecular Devices). Glass microelectrodes were pulled from filamented 1.2 mm thin wall borosilicate glass (World Precision Instruments, Sarasota, FL) using a Sutter Instruments P-97 puller. They were filled with 3 M KCl and had resistances of 0.8–2.0 MΩ. A silver chloride pellet immersed in 3 M KCl and connected to the bath via a 3% agar bridge made with 3 M KCl was used as the reference electrode.
# In experiments where more than three drugs or concentrations were tested a precisely controlled 30 s perfusion-switch was used. Up to eight channels were connected to the bath via an 8-way manifold. There was an approximately 6–7 s delay for solutions to traverse the dead volume between the manifold and the bath.
Structure (SMILES),"IC50 (antagonist applied as mixture with 50 µM octopamine, 30 second perfusion-switch, −60 mV, estimated graphically, read-out: IC50 for block of octopamine-evoked ID) [µM]",IC50 [µM]
CN1CCN2c3ccccc3Cc3ccccc3C2C1 (centres unmarked) [mianserin],~32,
O=C(CCCN1CCC(O)(c2ccc(Cl)cc2)CC1)c1ccc(F)cc1 [haloperidol],,~4.2

# Reference: article PMC4211885 (PLoS ONE, 2014)
